## Percent effect of library compounds

From ChEMBL document CHEMBL3988442, “University of Dundee, Small-Polar-MMV Screening Library” (2021).

Mtb cholesterol medium: 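Phenotypic screen: M. tuberculosis growth, cholesterol and DPPC medium, 4 days; the read-out is not stated. Tested at 50 µM. Direction is inferred from retests: higher values go with more growth inhibition. Of about 69,000 compounds tested this way, about 370 (0.54%) reached 50% or more in at least one test.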
Mtb glucose medium: 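Phenotypic screen: M. tuberculosis growth, glucose 7H9 medium, 3 days; the read-out is not stated. Compounds at 50 µM. The record gives no direction; compounds that gave an IC50 in retests scored well above the rest, so higher reads as more growth inhibition. About 69,000 compounds were tested under these conditions; 1.1% (about 760) showed 50% or more at least once.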

Values are the deposited “Percent Effect”, in %. How 0% and 100% were set is not recorded. Most values in the screen are low, and negative values occur. Compounds were drawn at random from those tested, without regard to their results. Two or more numbers in one place are separate tests of the same structure; such repeats can differ widely.

{"smiles": "CCS(=O)(=O)N1CCc2cc(C(=O)NC)c(NCC3CC3)nc2CC1", "Mtb cholesterol medium": -16.4, "Mtb glucose medium": -2.557}
{"smiles": "Cc1ccc(-c2ccnc(N3CCC4(CC3)CNC(=O)C4)n2)c(C)n1", "Mtb cholesterol medium": -17.17, "Mtb glucose medium": -28.54}
{"smiles": "CN1CC[C@]2(CN(CC3CC3)C[C@H]2c2ccccc2)C1=O", "Mtb cholesterol medium": -29.3, "Mtb glucose medium": -34.89}
{"smiles": "O=C(O)C(F)(F)F.[H][C@@]12COC[C@@H](CC(=O)N3CCCC3)[C@]1([H])CN(C(=O)c1cccc(C)n1)C2", "Mtb cholesterol medium": 6.005, "Mtb glucose medium": -14.37}
{"smiles": "N[C@@H]1CCCN(C(=O)Cc2c[nH]c3ccccc23)[C@H]1c1ccccc1F", "Mtb cholesterol medium": "13.28 & 0.2185", "Mtb glucose medium": -26.74}
{"smiles": "CCc1nnsc1C(=O)NCCn1nc2ccccn2c1=O", "Mtb cholesterol medium": -6.062, "Mtb glucose medium": 1.619}
{"smiles": "O=C(NC1CC(=O)N(C2CC2)C1)c1cccs1", "stereo": "stereo not given", "Mtb cholesterol medium": -35.71, "Mtb glucose medium": -27.7}
{"smiles": "O=C(c1cccnc1)N1CCc2c(COCC3CC3)cncc2C1", "Mtb cholesterol medium": -22.21, "Mtb glucose medium": 6.446}
{"smiles": "CS(=O)(=O)c1cccc(S(=O)(=O)NCCCN2CCNC(=O)C2)c1", "Mtb cholesterol medium": 0.6223, "Mtb glucose medium": 12.67}
{"smiles": "CN(CC(=O)NC1CC1)C(=O)c1csc(Br)c1", "Mtb cholesterol medium": 2.253, "Mtb glucose medium": "24.45 & -0.1311"}
{"smiles": "Cc1cc(NC(=O)CNc2cccc(OC(F)F)c2C)n(C)n1", "Mtb cholesterol medium": -8.195, "Mtb glucose medium": "14.65 & 13.83"}
{"smiles": "Cn1cccc1C(=O)N1CCc2onc(Cn3cccn3)c2C1", "Mtb cholesterol medium": -18.88, "Mtb glucose medium": -17.07}
{"smiles": "Cc1noc(C)c1C(=O)N1CCC2(CC(N(C)c3ccncn3)C2)C1", "stereo": "stereo not given", "Mtb cholesterol medium": 18.71, "Mtb glucose medium": -7.771}
{"smiles": "O=C(O)C(F)(F)F.[H][C@@]12C[C@@H](C(=O)NC(C)C)C[C@@]1([H])N(CC1CC1)CCO2", "Mtb cholesterol medium": 6.278, "Mtb glucose medium": "-5.203 & 9.495"}
{"smiles": "COc1cccc(N2CCN(C(=O)C(OC)c3ccccc3)CC2=O)c1", "stereo": "stereo not given", "Mtb cholesterol medium": -0.4226, "Mtb glucose medium": -14.19}
{"smiles": "Cc1cc(-c2cccc(C(=O)O)c2)nc(C2CCN(C(C)C)CC2)n1", "Mtb cholesterol medium": 1.143, "Mtb glucose medium": 11.16}
{"smiles": "CSc1ccccc1CN1CCCn2nc(CNC(=O)N(C)C)cc2C1", "Mtb cholesterol medium": 14.69, "Mtb glucose medium": "28.58 & -1.004"}
{"smiles": "O=C(O)C(F)(F)F.O=C(O)C(F)(F)F.[H][C@]12C[C@@H](CN3CCCC3)N(C(C)C)[C@@]1([H])CCN(C(=O)c1ccoc1)C2", "Mtb cholesterol medium": 0.3228, "Mtb glucose medium": "-2.338 & -8.949"}
{"smiles": "CC[C@@]1(O)CCN(C(=O)CCSCc2ccc(F)cc2)C[C@H]1O", "Mtb cholesterol medium": -16.45, "Mtb glucose medium": "-28.23 & -4.601"}
{"smiles": "Cc1ccc(OCCN(C)Cc2nccn2C)c(C)c1", "Mtb cholesterol medium": 12.5, "Mtb glucose medium": 34.77}
{"smiles": "COc1ccc(-c2cc(-c3nc(CN4CCN(C)CC4)no3)[nH]n2)cc1", "Mtb cholesterol medium": -4.57, "Mtb glucose medium": 17.01}
{"smiles": "CS(=O)(=O)N1CC(c2n[nH]c3ncccc23)C1", "Mtb cholesterol medium": -9.177, "Mtb glucose medium": -5.33}
{"smiles": "CN1CCN(C(=O)c2cnc3c(cnn3C3CCCC3)c2)CC1", "Mtb cholesterol medium": -0.5049, "Mtb glucose medium": 15.98}
{"smiles": "Cc1ccc(-c2nc(C(=O)NCC3CCOC3)cs2)cc1", "stereo": "stereo not given", "Mtb cholesterol medium": 19.63, "Mtb glucose medium": 22.65}
{"smiles": "O=C(O)CCc1cc2n(n1)CCCN(C(=O)c1cc3ccccc3s1)C2", "Mtb cholesterol medium": "-2.11 & 3.137", "Mtb glucose medium": 16.02}
{"smiles": "COc1ncccc1CNC(=O)c1c(C)oc(C)c1C", "Mtb cholesterol medium": 0.3564, "Mtb glucose medium": 15.56}
{"smiles": "C[C@@H]1CN(CCOCc2ccccc2)CC[C@@]1(O)C1CCC1", "Mtb cholesterol medium": -51.36, "Mtb glucose medium": -6.012}
{"smiles": "COCCCn1ccc(NS(=O)(=O)c2cc(F)c(C)cc2F)n1", "Mtb cholesterol medium": 4.677, "Mtb glucose medium": 12.97}
{"smiles": "COc1cc2nc3n(c(=O)c2cc1OC)CCN(C(=O)C1CC1)CC3", "Mtb cholesterol medium": -7.538, "Mtb glucose medium": -0.3039}
{"smiles": "CN(C)CC1(O)CCN(C(=O)c2ccc(-n3cccn3)cc2Cl)C1", "stereo": "stereo not given", "Mtb cholesterol medium": 7.404, "Mtb glucose medium": 11.53}
{"smiles": "Cc1noc(CNC(=O)c2ccccc2-n2cc(CN)cn2)n1", "Mtb cholesterol medium": -14.38, "Mtb glucose medium": -4.459}
{"smiles": "CN(C)C(=O)CCCNC(=O)C(c1cccc(F)c1)N(C)C", "stereo": "stereo not given", "Mtb cholesterol medium": -6.08, "Mtb glucose medium": -4.69}
{"smiles": "O=C(O)C(F)(F)F.O=C(O)C(F)(F)F.[H][C@@]12COC[C@@H](CC(=O)N3CCOCC3)[C@]1([H])CN(Cc1ccccn1)C2", "Mtb cholesterol medium": 5.827, "Mtb glucose medium": 25.32}
{"smiles": "CC(=O)N1CCC(NS(=O)(=O)c2cccnc2)CC1", "Mtb cholesterol medium": "-1.492 & 0.796", "Mtb glucose medium": -15.76}
{"smiles": "O=C1NCCN1C1CCCN(Cc2nnc(-c3ccc(F)cc3)o2)C1", "stereo": "stereo not given", "Mtb cholesterol medium": -6.048, "Mtb glucose medium": 21.44}
{"smiles": "Cc1cc(N2CCOC(C(F)(F)F)C2)nc(-c2ccccc2)n1", "stereo": "stereo not given", "Mtb cholesterol medium": -1.844, "Mtb glucose medium": 35.83}
{"smiles": "CCOc1nn(CC)cc1-c1nnc(SCc2ccccn2)n1C", "Mtb cholesterol medium": 13.87, "Mtb glucose medium": "-6.524 & 86.25"}
{"smiles": "CCC1CN(C(=O)Cc2coc(-c3ccccc3)n2)CCO1", "stereo": "stereo not given", "Mtb cholesterol medium": -12.06, "Mtb glucose medium": "-0.8209 & -14.87"}
{"smiles": "Cn1ccnc1CN1CCC2(CC1)CCN(c1ccccc1)C2=O.O=C(O)C(F)(F)F", "Mtb cholesterol medium": -28.78, "Mtb glucose medium": -50.73}
{"smiles": "O=C(c1csc(-c2ccco2)n1)N1CCN2CCCCC2C1", "stereo": "stereo not given", "Mtb cholesterol medium": -13.69, "Mtb glucose medium": "12.52 & 9.101"}
{"smiles": "CSCCC(NC(=O)c1ccc2ccccc2n1)C(=O)N(C)C", "stereo": "stereo not given", "Mtb cholesterol medium": "31.2 & -16.4", "Mtb glucose medium": -74.6}
{"smiles": "CC(=O)Nc1ccc2c(c1)nc1n2[C@@H](CNCc2ccccc2)COC1", "Mtb cholesterol medium": 7.209, "Mtb glucose medium": "2.545 & -20.34"}
{"smiles": "CSc1ccc(CN2CCn3nc(CNC(C)=O)cc3C2)cc1", "Mtb cholesterol medium": 9.884, "Mtb glucose medium": 4.926}

Once more, the final 5:

SMILES	Mtb cholesterol medium	Mtb glucose medium
Cn1ccnc1CN1CCC2(CC1)CCN(c1ccccc1)C2=O.O=C(O)C(F)(F)F	-28.78	-50.73
O=C(c1csc(-c2ccco2)n1)N1CCN2CCCCC2C1 (stereo not given)	-13.69	12.52 & 9.101
CSCCC(NC(=O)c1ccc2ccccc2n1)C(=O)N(C)C (stereo not given)	31.2 & -16.4	-74.6
CC(=O)Nc1ccc2c(c1)nc1n2[C@@H](CNCc2ccccc2)COC1	7.209	2.545 & -20.34
CSc1ccc(CN2CCn3nc(CNC(C)=O)cc3C2)cc1	9.884	4.926